{
  "source": "patent US9060991B2",
  "about": "“Use of GLP-1 analogues for the treatment of disorders associated with dysfunctional synaptic transmission” (Innovation Ulster Limited, priority 2007, dated 2015)",
  "tested_on": "long-term potentiation of synaptic transmission (EPSP slope, CA1 region of hippocampus)",
  "experiment": "LTP in hippocampal CA1 after icv GLP-1 peptides, weak HFS protocol",
  "format": "in vivo, Male Wistar rats",
  "conditions": "15 nmol in 5 μl icv, LTP induced 30 min post-injection (time not given for FIG. 3A)",
  "text": "Male Wistar rats weighing 220-280 g were anaesthetised with urethane (ethyl carbamate, 1.8 g/kg, intraperitoneal, (i.p.)) for the duration of all experiments. The animals had been obtained from Harlan, United Kingdom (UK). A cannula (22 gauge, 0.7 mm outer diameter, 11 mm in length, Bilaney, Kent, UK) was implanted (1.5 mm anterior to bregma, 0.5 mm lateral to the midline and 3.55 mm ventral) into the left hemisphere for intracerebroventricular (icv) injections. Electrodes (tungsten with Teflon® coating, Bilaney, Kent, UK) were implanted unilaterally 3.4 mm posterior and 2.5 mm lateral to the midline, and the stimulating electrode 4.2 mm posterior to bregma and 3.8 mm lateral to the midline. […] Field EPSPs were recorded on a computerised stimulating and recording unit (PowerLab, ADI instruments, UK) in which the trigger threshold was adjustable. […]\nThe ‘strong’ high frequency stimulation (HFS) protocol for inducing long-term potentiation (LTP) consisted of 3 trains of 200 stimuli, inter-stimulus interval 5 ms (200 Hz), inter-train interval 2 sec. […] LTP was measured as % of baseline EPSP slope recorded over a 30 min period prior to drug injection and 60 min prior to application of HFS. Baseline was recorded for 30 min and averaged. […]",
  "note": "At least one structure is not confirmed: it was looked up by name or label, or the drawing left a doubt.",
  "data": [
    {"smiles": "CCCCCCCCCCCCCCCC(=O)N[C@@H](CCC(=O)NCCCC[C@H](NC(=O)[C@H](C)NC(=O)[C@H](C)NC(=O)[C@H](CCC(N)=O)NC(=O)CNC(=O)[C@H](CCC(=O)O)NC(=O)[C@H](CC(C)C)NC(=O)[C@H](Cc1ccc(O)cc1)NC(=O)[C@H](CO)NC(=O)[C@H](CO)NC(=O)[C@@H](NC(=O)[C@H](CC(=O)O)NC(=O)[C@H](CO)NC(=O)[C@@H](NC(=O)[C@H](Cc1ccccc1)NC(=O)[C@@H](NC(=O)CNC(=O)[C@H](CCC(=O)O)NC(=O)[C@H](C)NC(=O)[C@@H](N)Cc1cnc[nH]1)[C@@H](C)O)[C@@H](C)O)C(C)C)C(=O)N[C@@H](CCC(=O)O)C(=O)N[C@@H](Cc1ccccc1)C(=O)N[C@H](C(=O)N[C@@H](C)C(=O)N[C@@H](Cc1c[nH]c2ccccc12)C(=O)N[C@@H](CC(C)C)C(=O)N[C@H](C(=O)N[C@@H](CCCNC(=N)N)C(=O)NCC(=O)N[C@@H](CCCNC(=N)N)C(=O)NCC(=O)O)C(C)C)[C@@H](C)CC)C(=O)O", "note": "[Liraglutide, Arg(34)Lys(26)-(N-epsilon-(gamma-Glu)(N-alpha-hexadecanoyl))GLP-1(7-37)]", "values": [
      {"measurement": "effect on LTP (change in EPSP) versus control", "value": "enhanced long-term potentiation (LTP) compared with control"}
    ]}
  ]
}
